The other results are listed elsewhere or left out. These are further read-outs of the screen, such as a control signal, another cell line or another target. No call is given for them. The list favours compounds with an active or inconclusive main result. The note in brackets gives the kind of curve behind each potency; many fits are weak.
Experiment: qHTS Assay for Lipid Storage Modulators in Drosophila S3 Cells;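 as to cell number change: cells counted by Cell Tracker Red CMTPX staining in the red channel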
Details: BODIPY lipid droplet fluorescence, 18-24 h; for cell number change: measured here: cell count max response, cells fed with added oleic acid
How it was run: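 Drosophila S3 cells loaded with oleic acid (400 uM, as added) and compounds at several concentrations; lipid droplets imaged by 488-nm laser-scanning cytometry, 500–530 nm intensity and object ratio to cell channel. Percent activity normalized to 20 uM Triacsin C.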

[1] = measured here: lipid fluorescence (Fed channel) AC50, cells fed with added oleic acid
[2] = measured here: cell number channel AC50, cells fed with added oleic acid

Compound | cell number change [%] | AC50 [1] | AC50 [2]
COc1c(Cl)cc(Cl)cc1CNCCO | 2.76 | 5.17 µM [falling, single point] | –
N#C/C(=C/c1ccccc1)C(=O)NCc1ccccc1 | – | 2.31 µM [falling, full curve] | –
Cc1ccccc1C(=O)NCCCNC(=O)c1ccccn1 | 9.52 | 14.6 µM [rising, single point] | –
O=C(COc1ccccc1[N+](=O)[O-])NCc1cccnc1 | -36.7 | – | 5.8 µM [falling, partial curve]
CCCCn1nnnc1SCC(=O)NCc1ccccc1 | -8.27 | 0.00517 µM [falling, full curve, poor fit] | –
CCCCn1c(N)c(N(CCC(C)C)C(=O)c2ccc(C)c(S(=O)(=O)N3CCOCC3)c2)c(=O)[nH]c1=O | -18.2 | – | –
O=C(NC(=S)N1CCCc2ccccc21)c1ccc(Cl)cc1 | 0.94 | – | –
Cc1cc(C)c2[nH]c(=O)c(CN(Cc3cccs3)C(=S)NCc3ccco3)cc2c1 | 4.35 | 0.517 µM [rising, single point] | –
Cc1nnc(NC(=O)c2cccc(S(=O)(=O)N(C)c3cccc(Cl)c3)c2)s1 | 9.8 | 2.06 µM [rising, partial curve, poor fit] | –
O=C(CCc1ccccc1)N1CCN(c2ccc([N+](=O)[O-])cc2)CC1 | – | 0.58 µM [rising, single point] | –
CNS(=O)(=O)c1cccc(C(=O)OCC(=O)c2cc(C)n(CC3CCCO3)c2C)c1 (stereo unspecified) | 2.76 | 2.31 µM [rising, full curve, poor fit] | –
Cc1ccc(C(=O)c2ccccc2C(=O)OCC(=O)NC(=O)NC(C)(C)C)cc1 | 82.2 | – | 23.1 µM [rising, partial curve]
COc1ccc(Cl)cc1NC(=O)c1c(-c2ccccc2)noc1C | -6.49 | 3.66 µM [rising, full curve] | –
O=C(OCCN1C(=O)c2cccc3c(N4CCOCC4)ccc(c23)C1=O)c1ccc(Cl)cc1 | -21.7 | – | –
O=C(N/N=C/c1ccc([N+](=O)[O-])o1)c1cn(-c2ccccc2)nc1-c1ccc(F)cc1 | 6.69 | – | –
O=C(Nc1ccc(N2CCOCC2)c(Cl)c1)c1ccco1 | 12.3 | 7.31 µM [falling, partial curve] | –
COC(=O)CC1(C(=O)OC)Oc2ccc(Br)cc2C(=O)N1c1ccc(Br)cc1Cl (stereo unspecified) | -39.5 | 29.1 µM [falling, single point] | 18.4 µM [falling, single point]
CCC(=O)NC(=S)Nc1ccccc1F | 0.586 | 29.1 µM [falling, single point] | –

Single values from the entries so far.
N#C/C(=C/c1ccccc1)C(=O)NCc1ccccc1 – AC50 [1]: 2.31 µM [falling, full curve]
O=C(OCCN1C(=O)c2cccc3c(N4CCOCC4)ccc(c23)C1=O)c1ccc(Cl)cc1 – cell number change [%]: -21.7

Source: PubChem BioAssay AID2685 (National Center for Advancing Translational Sciences (NCATS), 2010)
